Where two headings read alike, the source gives them in different places. No constants are given. Whether binding was seen depends on the method and setting. Binding calls can cover weak binding; strength is not graded here.
Experiments:
Assay in all cases: two-hybrid
[1] = target: PREPL p.Arg647Gln (MAPPIT bait) (human) (UniProt Q4J6C6)
[2] = target: PREPLS, wild type (MAPPIT bait) (human) (UniProt Q4J6C6)
[3] = target: PREPL β-propeller domain alone (MAPPIT bait) (human) (UniProt Q4J6C6)
[4] = target: PREPL β-propeller domain alone (MAPPIT bait) (human) (UniProt Q4J6C6); remark: listed apart in the source

Sequences of proteins named here, by UniProt entry; tags and fusion partners are left off. A change or cut given only in a name is not applied to a line headed by its entry. A line that says so, or that is headed by a name, gives the form on record, which may keep a tag or linker. Residues count along the entry.
PREPLS, wild type (MAPPIT bait) (Q4J6C6, residues 90-727): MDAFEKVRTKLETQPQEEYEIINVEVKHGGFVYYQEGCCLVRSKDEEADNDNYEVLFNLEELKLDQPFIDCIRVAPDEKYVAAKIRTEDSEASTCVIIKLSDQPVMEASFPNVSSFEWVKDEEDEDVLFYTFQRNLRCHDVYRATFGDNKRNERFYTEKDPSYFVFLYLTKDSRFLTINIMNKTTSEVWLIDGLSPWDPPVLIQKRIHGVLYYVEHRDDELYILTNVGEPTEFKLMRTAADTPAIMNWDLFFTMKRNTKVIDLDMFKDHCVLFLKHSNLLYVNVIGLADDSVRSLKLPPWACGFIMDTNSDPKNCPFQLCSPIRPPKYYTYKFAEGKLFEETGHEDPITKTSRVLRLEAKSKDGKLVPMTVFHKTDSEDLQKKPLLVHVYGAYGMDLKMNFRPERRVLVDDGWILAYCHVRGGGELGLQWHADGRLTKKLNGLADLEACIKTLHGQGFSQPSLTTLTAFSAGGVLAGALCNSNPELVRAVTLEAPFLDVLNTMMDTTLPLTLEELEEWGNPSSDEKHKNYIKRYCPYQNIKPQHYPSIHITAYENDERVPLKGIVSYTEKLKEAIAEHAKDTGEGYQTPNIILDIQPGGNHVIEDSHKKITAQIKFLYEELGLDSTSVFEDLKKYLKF
PREPL p.Arg647Gln (MAPPIT bait) (Q4J6C6, form named): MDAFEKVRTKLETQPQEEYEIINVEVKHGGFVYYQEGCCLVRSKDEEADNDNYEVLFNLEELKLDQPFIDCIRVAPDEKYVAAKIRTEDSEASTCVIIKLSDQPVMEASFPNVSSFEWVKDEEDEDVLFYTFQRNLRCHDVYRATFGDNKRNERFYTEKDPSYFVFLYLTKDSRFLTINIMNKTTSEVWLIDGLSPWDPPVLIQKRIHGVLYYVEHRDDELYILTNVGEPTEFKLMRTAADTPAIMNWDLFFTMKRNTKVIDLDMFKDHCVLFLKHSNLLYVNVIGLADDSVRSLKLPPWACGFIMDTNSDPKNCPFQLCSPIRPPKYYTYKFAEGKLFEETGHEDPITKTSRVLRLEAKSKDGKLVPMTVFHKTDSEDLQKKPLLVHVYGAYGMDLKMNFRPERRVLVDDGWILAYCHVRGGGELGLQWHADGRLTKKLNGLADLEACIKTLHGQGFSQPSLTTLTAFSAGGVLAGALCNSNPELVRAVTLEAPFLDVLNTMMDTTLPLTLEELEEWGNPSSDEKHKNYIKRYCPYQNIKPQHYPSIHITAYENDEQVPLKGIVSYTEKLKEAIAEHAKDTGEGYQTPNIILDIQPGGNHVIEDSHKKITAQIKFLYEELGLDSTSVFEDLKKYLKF
UniProt Q7Z4H4: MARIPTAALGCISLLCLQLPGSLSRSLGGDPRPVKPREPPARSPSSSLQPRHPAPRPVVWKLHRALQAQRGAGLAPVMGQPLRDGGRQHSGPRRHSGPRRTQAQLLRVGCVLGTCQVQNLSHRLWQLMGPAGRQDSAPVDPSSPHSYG
UniProt Q9BTE1: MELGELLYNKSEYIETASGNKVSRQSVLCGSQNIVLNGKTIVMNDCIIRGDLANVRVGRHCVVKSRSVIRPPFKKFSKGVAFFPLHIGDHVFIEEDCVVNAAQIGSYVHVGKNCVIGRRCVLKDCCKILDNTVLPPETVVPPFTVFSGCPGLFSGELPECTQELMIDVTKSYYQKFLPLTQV
UniProt P19404, residues 33-249: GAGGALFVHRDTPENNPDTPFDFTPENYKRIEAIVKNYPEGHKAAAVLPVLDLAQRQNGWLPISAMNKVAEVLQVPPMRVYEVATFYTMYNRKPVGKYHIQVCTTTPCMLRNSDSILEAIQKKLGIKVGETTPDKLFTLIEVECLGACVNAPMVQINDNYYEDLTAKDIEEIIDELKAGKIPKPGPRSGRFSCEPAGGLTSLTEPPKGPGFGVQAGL

Row | binding [3] | binding [4] | Molecule | other results
1 | no binding |  | ADM2 (from UniProt Q7Z4H4) | binding [1]: binds; binding [2]: binds
2 | no binding |  | ARPC5L (from UniProt Q9BPX5 1-153) | 
3 | no binding |  | DCTN5 (from UniProt Q9BTE1 1-182) | 
4 | binds |  | NDUFV2 (from UniProt P19404 33-249) | 
5 |  | binds | UBL5 (protein, UniProt Q9BZL1 1-73) MIEVVCNDRLGKKVRVKCNTDDTIGDLKKLIAAQTGTRWNKIVLKKWYTIFKDHVSLGDYEIHDGMNLELYYQ | 
6 |  | no binding | MDM1 (protein, UniProt Q8TC05 1-714) MPVRFKGLSEYQRNFLWKKSYLSESCNSSVGRKYPWAGLRSDQLGITKEPSFISKRRVPYHDPQISKSLEWNGAISESNVVASPEPEAPETPKSQEAEQKDVTQERVHSLEASRVPKRTRSHSADSRAEGASDVENNEGVTNHTPVNENVELEHSTKVLSENVDNGLDRLLRKKAGLTVVPSYNALRNSEYQRQFVWKTSKETAPAFAANQVFHNKSQFVPPFKGNSVIHETEYKRNFKGLSPVKEPKLRNDLRENRNLETVSPERKSNKIDDRLKLEAEMELKDLHQPKRKLTPWKHQRLGKVNSEYRAKFLSPAQYLYKAGAWTHVKGNMPNQVKELREKAEFYRKRVQGTHFSRDHLNQILSDSNCCWDVSSTTSSEGTVSSNIRALDLAGDPTSHKTLQKCPSTEPEEKGNIVEEQPQKNTTEKLGVSAPTIPVRRRLAWDTENTSEDVQKQPGEKEEEDDNEEEGDRKTGKQAFMGEQEKLDVREKSKADKMKEGSDSSVSSEKGGRLPTPKLRELGGIQRTHHDLTTPAVGGAVLVSPSKMKPPAPEQRKRMTSQDCLETSKNDFTKKESRAVSLLTSPAAGIKTVDPLPLREDSEDNIHKFAEATLPVSKIPKYPTNPPGQLPSPPHVPSYWHPSRRIQGSLRDPEFQHNVGKARMNNLQLPQHEAFNDEDEDRLSEISARSAASSLRAFQTLARAKKRKENFWGKT | 
7 |  | no binding | DISC1 (protein, UniProt Q9NRI5 1-854) MPGGGPQGAPAAAGGGGVSHRAGSRDCLPPAACFRRRRLARRPGYMRSSTGPGIGFLSPAVGTLFRFPGGVSGEESHHSESRARQCGLDSRGLLVRSPVSKSAAAPTVTSVRGTSAHFGIQLRGGTRLPDRLSWPCGPGSAGWQQEFAAMDSSETLDASWEAACSDGARRVRAAGSLPSAELSSNSCSPGCGPEVPPTPPGSHSAFTSSFSFIRLSLGSAGERGEAEGCPPSREAESHCQSPQEMGAKAASLDGPHEDPRCLSRPFSLLATRVSADLAQAARNSSRPERDMHSLPDMDPGSSSSLDPSLAGCGGDGSSGSGDAHSWDTLLRKWEPVLRDCLLRNRRQMEVISLRLKLQKLQEDAVENDDYDKAETLQQRLEDLEQEKISLHFQLPSRQPALSSFLGHLAAQVQAALRRGATQQASGDDTHTPLRMEPRLLEPTAQDSLHVSITRRDWLLQEKQQLQKEIEALQARMFVLEAKDQQLRREIEEQEQQLQWQGCDLTPLVGQLSLGQLQEVSKALQDTLASAGQIPFHAEPPETIRSLQERIKSLNLSLKEITTKVCMSEKFCSTLRKKVNDIETQLPALLEAKMHAISGNHFWTAKDLTEEIRSLTSEREGLEGLLSKLLVLSSRNVKKLGSVKEDYNRLRREVEHQETAYETSVKENTMKYMETLKNKLCSCKCPLLGKVWEADLEACRLLIQSLQLQEARGSLSVEDERQMDDLEGAAPPIPPRLHSEDKRKTPLKVLEEWKTHLIPSLHCAGGEQKEESYILSAELGEKCEDIGKKLLYLEDQLHTAIHSHDEDLIQSLRRELQMVKETLQAMILQLQPAKEAGEREAAASCMTAGVHEAQA | 
